# Source: article doi:10.1101/2020.09.18.302638
# These are yes or no findings as the source states them, for the method shown. Some results given as binding are weak or reduced against the parent protein; the word gives no strength.
# B1: tyrosyl-tRNA synthetase (TyrRS) from Phaseolus vulgaris (common bean) (enzyme, UniProt V7CJ18 1-379)
# chain: MEQAPSEALQSLSVSDSQIPQSSNSTPQLSPEEKFKIVRSVGEECIQEDELLNLLTKKPEPVCYDGFEPSGRMHIAQGVMKTISVNKLTSAGCRVKIWIADWFAKLNNKMGGDLKKIETVGRYLIEIWKAVGMDVEGGKVEFLWSSKEINARADEYWPLVLDIAQKNNLKRIIRCSQIMGRSEQDELTAAQIFYPCMQCADIFFLKADICQLGMDQRKVNVLAREYCDDIKRKNKPIILSHHMLPGLQQGQEKMSKSDPSSSVFMEDEEAEVNVKIKKAYCPPKVVEGNPCLEYIKYLILPWFNEFTVERSADNGGNKTFKSYEELIADYESGELHPADLKPALSKSLNKILEPVREHFRKDSNAKELLKRVKAYRVTK
# Target: tyrosyl-tRNA synthetase (TyrRS) from Phaseolus vulgaris (common bean) (Phaseolus vulgaris (common bean)) (UniProt V7CJ18)
# Assay: cryo-EM structure
binder,measurement,value
B1,binding,binds
